Measurements reported in paper PMC9549625.
No constants are given. Whether binding was seen depends on the method and setting. Binding seen in cells or lysates may run through a third protein. Some binding calls cover weakened binding; strength is not graded here.

The chains behind the UniProt entries cited, without tags or fusion partners.
UniProt P46937: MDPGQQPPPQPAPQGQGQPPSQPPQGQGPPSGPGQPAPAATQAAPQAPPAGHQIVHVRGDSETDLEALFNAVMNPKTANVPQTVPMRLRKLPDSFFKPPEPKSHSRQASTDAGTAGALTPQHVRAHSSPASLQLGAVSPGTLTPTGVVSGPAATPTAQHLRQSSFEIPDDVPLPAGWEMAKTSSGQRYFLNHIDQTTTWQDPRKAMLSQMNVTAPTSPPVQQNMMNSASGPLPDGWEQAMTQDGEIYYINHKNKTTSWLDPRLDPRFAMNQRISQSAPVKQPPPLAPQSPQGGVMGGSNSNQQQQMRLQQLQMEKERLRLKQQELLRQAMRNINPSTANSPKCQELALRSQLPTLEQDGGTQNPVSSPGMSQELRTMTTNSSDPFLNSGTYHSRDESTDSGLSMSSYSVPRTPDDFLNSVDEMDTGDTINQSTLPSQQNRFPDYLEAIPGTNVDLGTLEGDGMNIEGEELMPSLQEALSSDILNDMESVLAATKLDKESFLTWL
UniProt P49407: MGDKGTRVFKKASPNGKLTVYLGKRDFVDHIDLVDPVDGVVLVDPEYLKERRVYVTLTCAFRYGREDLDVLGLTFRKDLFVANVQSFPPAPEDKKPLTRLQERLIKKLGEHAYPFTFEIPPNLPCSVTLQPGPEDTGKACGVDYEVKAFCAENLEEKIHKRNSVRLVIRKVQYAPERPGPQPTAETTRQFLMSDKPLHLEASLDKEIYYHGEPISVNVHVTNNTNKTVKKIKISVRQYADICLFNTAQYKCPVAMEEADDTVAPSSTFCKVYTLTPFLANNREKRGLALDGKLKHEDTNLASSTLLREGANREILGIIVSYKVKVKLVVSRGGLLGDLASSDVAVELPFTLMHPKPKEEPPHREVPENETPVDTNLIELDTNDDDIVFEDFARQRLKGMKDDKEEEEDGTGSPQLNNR
UniProt P25490: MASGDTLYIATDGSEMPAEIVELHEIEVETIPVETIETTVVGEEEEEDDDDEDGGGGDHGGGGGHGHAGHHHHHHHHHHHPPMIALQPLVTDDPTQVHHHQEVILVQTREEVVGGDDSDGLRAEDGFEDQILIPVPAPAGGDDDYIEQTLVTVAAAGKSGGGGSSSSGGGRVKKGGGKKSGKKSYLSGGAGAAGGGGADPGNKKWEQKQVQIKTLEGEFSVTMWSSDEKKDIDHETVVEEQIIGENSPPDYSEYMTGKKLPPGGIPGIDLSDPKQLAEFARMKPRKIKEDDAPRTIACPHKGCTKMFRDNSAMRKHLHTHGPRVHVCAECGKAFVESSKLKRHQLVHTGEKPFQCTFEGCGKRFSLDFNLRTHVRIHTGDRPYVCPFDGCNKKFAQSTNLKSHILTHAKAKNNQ

Biological target: Yes-associated protein 1 (YAP1), endogenous (human (endogenous in HCT116)) (UniProt P46937)
Assay: co-IP; endogenous proteins in HCT116 cell lysates; 3 µg primary antibody or normal rabbit IgG on protein A/G magnetic beads, incubated with protein lysates at 4 °C overnight; Western blot

Row | binding | Substance
1 | binds | β-arrestin1, endogenous (from UniProt P49407 1-418)
2 | binds | Yin Yang 1 (YY1), endogenous (from UniProt P25490 1-414)
